These are yes or no findings as the source states them, for the method shown. Binding seen in cells or lysates may run through a third protein. Some entries that bind do so weakly or less than the wild type.
Molecular target: CFP10 (Rv3874), N-terminally his-tagged (M. tuberculosis) (UniProt P9WNK5)
Test: pull-down

By UniProt entry, the sequences of proteins in these tests, tags left out. Residues count along the entry.
UniProt P9WNK5: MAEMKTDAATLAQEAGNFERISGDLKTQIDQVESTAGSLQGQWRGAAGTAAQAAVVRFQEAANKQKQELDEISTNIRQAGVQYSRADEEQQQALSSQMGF
UniProt P9WNK7, residues 2-95: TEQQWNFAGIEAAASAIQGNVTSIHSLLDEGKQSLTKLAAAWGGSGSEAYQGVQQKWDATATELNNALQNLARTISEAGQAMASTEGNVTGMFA

With “ESAT6 (Rv3875) (from UniProt P9WNK7 2-95)” the binding was “binds”.

— publication PMC3076238, “Improved mycobacterial protein production using a Mycobacterium smegmatis groEL1ΔC expression strain” (BMC Biotechnology, 2011)
